Measured values: PubChem BioAssay AID485314 (National Center for Advancing Translational Sciences (NCATS), 2010)
Out of some 340,000 compounds screened, about 4,500 (1.3%) were called active. This list was built around the results that the source calls inconclusive (neither active nor inactive); the mix of calls is not that of the screen. Calls come from the whole dose curve; as a rule, active = well fitted inhibition curve with a large enough effect; inconclusive = small, poorly fitted or top-dose-only effect, or another doubt; inactive = no such curve, though single readings can be large or run the other way. Potencies of inconclusive entries are doubtful fits and often do not repeat.
% is set by controls: 0 for no effect and ±100 for the full control effect; potency is the fitted concentration of half-maximal effect.

Each compound was assayed against DNA polymerase beta (Homo sapiens) (UniProt P06746) (assay: qHTS Assay for Inhibitors of DNA Polymerase Beta). Conditions: Pol beta primer extension/strand displacement, fluorescence kinetic; activity change, negative = inhibition: at 114 µM (top of the series).
Summary of the method: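 Pol beta (10 nM) and compounds were preincubated 15 min at room temperature, then 50 nM substrate (final) started primer extension/strand displacement. Reads were taken at 0 and 10 min; concentration-response data were fitted to a four-parameter Hill equation.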
With `O=C(NC1CCc2ccccc21)C1CCN(S(=O)(=O)c2ccc(Cl)cc2)CC1` (stereo not drawn) the Potency was inconclusive: 79.4 µM [inhibitor, single point].
`CCn1cc(C(=O)NC(=S)Nc2ccccc2[N+](=O)[O-])cn1` was tested, and the Potency was inconclusive: 3.98 µM [inhibitor, single point].
In the case of `Cc1cc(C)cc(OCC(=O)Nc2cc(C)on2)c1`, the Potency is reported as inconclusive: 89.1 µM [inhibitor, single point].
For `Cc1cccc(C(=O)NNC(=O)c2ccccc2[N+](=O)[O-])c1`, the Potency was inconclusive: 89.1 µM [inhibitor, single point].
With `OC1(c2ccccc2)CCN(Cc2ccccc2)CC1` the Potency was inconclusive: 89.1 µM [inhibitor, single point].
With `C/C(=N\NC(=O)c1cc(O)cc(O)c1)c1ccc(NC(=O)Cc2ccccc2)cc1` the Potency was active: 1.58 µM.
`Cc1[nH]c2ccc(Cl)cc2c(=O)c1CN1CCCC1` was tested, and the Potency was inconclusive: 63.1 µM [inhibitor, single point].
In the case of `Nc1n[nH]c(N)c1N=Nc1ccc2c(c1)OCO2`, the Potency is reported as inconclusive: 89.1 µM [inhibitor, single point].
For `Cc1ccc(S(=O)(=O)CCC(=O)Nc2ccccc2Br)cc1`, the Potency was inconclusive: 56.2 µM [inhibitor, single point].
`O=S(=O)(c1ccc(Br)s1)N1CCN(c2ccc(F)cc2)CC1` was tested, and the Potency was inconclusive: 89.1 µM [inhibitor, single point].
`O=C1CCCN1CCCNc1ccc2nnc(CCC(=O)N3CCN(c4ccccc4)CC3)n2n1` was tested, and the activity change, negative = inhibition was inconclusive: -31.3% [inhibitor].
With `CCOc1ccc(N2C(=O)C3C4C=CC([C@H]5CC45)[C@@H]3C2=O)cc1` (stereo partly drawn) the “activity change, negative = inhibition” value was inactive: 41.8%.
`Cc1nc2ccccc2cc1OCc1ccc(F)cc1` was tested, and the Potency was inconclusive: 70.8 µM [inhibitor, single point].
In the case of `O=C(CN1CCN(S(=O)(=O)/C=C/c2ccccc2)CC1)Nc1ccc(N2CCOCC2)cc1`, the Potency is reported as inconclusive: 100 µM [inhibitor, single point].
For `Cc1ccc(-c2csc3nc(SCC(=O)Nc4ccc(Cl)c(C(=O)O)c4)[nH]c(=O)c23)cc1`, the activity change, negative = inhibition was inconclusive: -32.1% [inhibitor].
With `Cc1oc(-c2ccc(C(=O)NC(C)c3ccccc3)cc2)nc1CS(=O)(=O)c1ccccc1` (stereo not drawn) the Potency was inconclusive: 50.1 µM [inhibitor, single point].
In the case of `Cc1ccc(NC(=O)N/C=C/c2ccco2)cc1C`, the Potency is reported as active: 25.1 µM.
With `CCOc1ccc(NC(=O)NNC(=O)c2ccc(CC)s2)cc1` the Potency was active: 79.4 µM.
For `Cc1ccc(NC(=O)Cn2c(=O)n(CCC(=O)NC3CCN(Cc4ccccc4)CC3)c(=O)c3ccccc32)cc1`, the Potency was inconclusive: 89.1 µM [inhibitor, single point].
In the case of `CCOC(=O)C1=C(O)/C(=C/c2ccc(-c3ccccc3C(=O)O)o2)SC1=Nc1ccc(C)cc1`, the “activity change, negative = inhibition” value is reported as inactive: 3.29%.
`Cc1sc(-c2ccncc2)nc1OC(=O)c1ccc(Cl)cc1` was tested, and the Potency was inconclusive: 70.8 µM [inhibitor, single point].
In the case of `COc1ccc(CCNS(=O)(=O)c2cccc([N+](=O)[O-])c2)cc1OC`, the Potency is reported as inconclusive: 39.8 µM [inhibitor, single point].
`CCOc1ccccc1NS(=O)(=O)c1ccc2[nH]c(=O)ccc2c1` was tested, and the Potency was inconclusive: 22.4 µM [inhibitor, full curve, poor fit].
With `C[n+]1c2n(c3ccccc31)N=C(c1ccc(-c3ccccc3)cc1)CS2` the “activity change, negative = inhibition” value was inactive: -10.8%.
In the case of `CN(C)c1ccc(N/C=C/C(=O)c2ccco2)cc1`, the Potency is reported as inconclusive: 0.708 µM [inhibitor, full curve].
For `Cc1ccc(C)c(/C(O)=C2\C(=O)C(=O)N(CCCn3ccnc3)C2c2ccncc2)c1` (stereo not drawn), the Potency was inconclusive: 0.891 µM [inhibitor, full curve, poor fit].
`CCOC(=O)c1c(C)[nH]c(C(=O)OCC(=O)N2CC(C)OC(C)C2)c1C` (stereo not drawn) was tested, and the Potency was inconclusive: 89.1 µM [inhibitor, single point].
For `CC1CCc2nc3ncn(Cc4ccc(Cl)cc4)c(=O)c3cc2C1` (stereo not drawn), the “activity change, negative = inhibition” value was inactive: 9.91%.
With `CCOC(=O)C1(CCc2ccccc2)CCN(C2Cc3ccccc3C2)CC1` the Potency was inconclusive: 79.4 µM [inhibitor, single point].
`Cc1ccc(C(=O)Oc2cc(-c3ccccc3)no2)cc1` was tested, and the “activity change, negative = inhibition” value was inactive: 7.11%.
With `Clc1ccc(-n2nnnc2CN2CCCCC2)cc1Cl` the Potency was inconclusive: 89.1 µM [inhibitor, single point].
With `O=C(Cn1nc(-c2ccccc2)c2cnc3ccccc3c21)Nc1ccccc1` the “activity change, negative = inhibition” value was inactive: -9.66%.
In the case of `Cc1cc(C)nc(NS(=O)(=O)c2ccc(NC(=O)c3ccccc3O)cc2)n1`, the “activity change, negative = inhibition” value is reported as inactive: 17.1%.
For `Nc1nc(NCCCN2CCOCC2)nc(Nc2ccccc2F)c1[N+](=O)[O-]`, the Potency was inconclusive: 89.1 µM [inhibitor, single point].
In the case of `COc1ccc(Br)cc1Cn1nnc(C(=O)Nc2ccc(C)cc2C)c1N`, the Potency is reported as inconclusive: 7.08 µM [inhibitor, full curve].
With `CCC(C)(C)n1nnnc1C(c1ccc(OC)c(OC)c1)N1CCN(C(=O)c2ccco2)CC1` (stereo not drawn) the “activity change, negative = inhibition” value was inactive: -7.42%.
In the case of `Cc1cc(=O)n2nc(N3CCCC3C(=O)Nc3ccccc3C)sc2n1` (stereo not drawn), the Potency is reported as inconclusive: 0.251 µM [inhibitor, full curve, poor fit].
For `CCN(CC)Cc1cc(C(C)=O)ccc1O`, the Potency was inconclusive: 0.794 µM [inhibitor, full curve, poor fit].
With `Cc1cccc(-n2c(-c3ccco3)n[nH]c2=S)c1` the Potency was inconclusive: 39.8 µM [inhibitor, single point].
For `Cc1cccn2c(=O)c3cc(C#N)c(=NC(=O)c4ccco4)n(Cc4ccco4)c3nc12`, the Potency was active: 14.1 µM.
In the case of `COc1ccc(N(CC(=O)N2c3ccccc3CC2C)S(=O)(=O)c2c(C)nn(C)c2C)cc1` (stereo not drawn), the Potency is reported as inconclusive: 31.6 µM [inhibitor, single point].
In the case of `Cc1cccc(NC(=O)CSc2nnc(-c3ccco3)c(-c3ccco3)n2)c1`, the Potency is reported as active: 25.1 µM.
With `Cc1ccccc1OCC(=O)NNC(=O)c1cc(S(=O)(=O)N(C)C)ccc1N1CCCC1` the Potency was inconclusive: 0.447 µM [inhibitor, full curve, poor fit].
